# Measured values published in US20250011881A1, “MYC-HSF1 DUAL AMPLIFICATION AS A BIOMARKER FOR CANCER TREATMENT” (The Trustees of Indiana University, priority 2023, published 2025).
# Like-named read-outs stand apart in the source and are kept apart here.
# System: ovarian cancer cells with (OVCAR8, OVCAR4) or without (OVSAHO, CAOV3) MYC-HSF1 amplification
# Assay: Epigenetic inhibitor drug screen, cell viability (Cell Titer Blue)
# Type: cell-based
SMILES,"Non Amp - AMP (POC) 10 uM (10 uM, 48 hrs, average relative cell viability (vs 1% DMSO) of non-amplified cells (OVSAHO, CAOV3) minus that of MYC-HSF1 amplified cells (OVCAR8, OVCAR4), positive = greater response in amplified cells) [POC]",Non Amp - AMP (POC) 10 uM [POC]
Cc1ccc(C(=O)NCCCCCC(=O)Nc2ccccc2N)cc1 [RG2833],17.84,
Cc1ccc(C(=O)NCCCCCC(=O)Nc2ccccc2N)cc1 [RGFP109],,50.52
